PubChem BioAssay AID1224826 – NIAID | 2016
Here is an unselected part of about 17,000 deposited reagents. About 1,110 of them (6.6%) count as active. 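Active means lowered or raised reporter signal; replicate intensities are raw and not normalised per plate.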

- Test: 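Regulators of Tlr4 signalling leading to Tnf-alpha expression in macrophages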 (primary screen)
- Cells: RAW264.7 G9 macrophages from mouse bearing reporters for p65 (GFP) and the Tnf promoter (mCherry)
- Reagents: siRNA pool against mouse genes, 100 nM
- Duration: 16 h of LPS stimulation, after 2 days of siRNA transfection
- Treatment: bacterial lipopolysaccharide (Salmonella minnesota R595), 10 ng/ml
- Detection: 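Imaged Tnf reporter mCherry in nuclei, minus background, normalised per plate to the median and expressed as robust z-scores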
- Scale: Tnf reporter robust z-score: higher = stronger Tnf promoter reporter signal after LPS; Tnf reporter intensity: higher = stronger Tnf promoter reporter signal
- Rule for the call: 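a well counts as active at a score of -1.3 or below (Tlr4 knock-down control median) or above 3 (raised signal); controls and wells holding fewer than 50 cells are excluded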
- Meaning of the calls: active = Tnf reporter clearly lowered or raised; inactive = no clear change in Tnf reporter

no.	Gene	Tnf reporter robust z-score	fewer than 50 cells in well	Tnf reporter intensity, replicate 1	Tnf reporter intensity, replicate 2	Outcome
1	Rnase2a		fewer than 50 cells per well; well left out of calls	84	35.1	inactive
2	Tspan11	-0.62	enough cells in well	219	58	inactive
3	Scand1	-1.24	enough cells in well	60.8	40.3	inactive
4	Ifna4	-0.2	enough cells in well	226	171	inactive
5	Spon2	-0.27	enough cells in well	90.9	90.5	inactive
6	Gata4	0.13	enough cells in well	284	231	inactive
7	Krt4	-1.07	enough cells in well	148	100	inactive
8	Svs3b	-1.72	enough cells in well	93.9	59.7	active
9	Snrnp40	0.83	enough cells in well	153	258	inactive
10	Anks4b	1.07	enough cells in well	272	265	inactive
11	Aldh2	-0.76	enough cells in well	125	126	inactive
12	Ufd1	2.57	enough cells in well	433	425	inactive
13	Ces2c	0.97	enough cells in well	225	225	inactive
14	Dctd	-1.33	enough cells in well	148	79.7	active
15	Ppm1n	1.79	enough cells in well	197	374	inactive
16	Gsap	0.73	enough cells in well	182	225	inactive
17	Mtmr2	-0.05	enough cells in well	301	168	inactive
18	Ttf1	-0.61	enough cells in well	180	185	inactive
19	Ina	0.72	enough cells in well	210	183	inactive
20	Zcchc3		fewer than 50 cells per well; well left out of calls	343	181	inactive
21	Ramac		fewer than 50 cells per well; well left out of calls	0	70.7	inactive
22	Rgma	0.71	enough cells in well	148	169	inactive
23	Cct4	0.51	enough cells in well	324	211	inactive
24	Gypa	0.18	enough cells in well	240	189	inactive
25	Osbpl5	1.91	enough cells in well	267	195	inactive
26	Ihh	-0.58	enough cells in well	186	157	inactive

Part of the list above in another layout.
Zcchc3 | fewer than 50 cells in well = fewer than 50 cells per well; well left out of calls; Tnf reporter intensity, replicate 1 = 343; Tnf reporter intensity, replicate 2 = 181; Outcome = inactive
Ramac | fewer than 50 cells in well = fewer than 50 cells per well; well left out of calls; Tnf reporter intensity, replicate 1 = 0; Tnf reporter intensity, replicate 2 = 70.7; Outcome = inactive
Rgma | Tnf reporter robust z-score = 0.71; fewer than 50 cells in well = enough cells in well; Tnf reporter intensity, replicate 1 = 148; Tnf reporter intensity, replicate 2 = 169; Outcome = inactive
Cct4 | Tnf reporter robust z-score = 0.51; fewer than 50 cells in well = enough cells in well; Tnf reporter intensity, replicate 1 = 324; Tnf reporter intensity, replicate 2 = 211; Outcome = inactive
Gypa | Tnf reporter robust z-score = 0.18; fewer than 50 cells in well = enough cells in well; Tnf reporter intensity, replicate 1 = 240; Tnf reporter intensity, replicate 2 = 189; Outcome = inactive

Additional results follow:
no.	Gene	Tnf reporter robust z-score	fewer than 50 cells in well	Tnf reporter intensity, replicate 1	Tnf reporter intensity, replicate 2	Outcome
27	Slc22a22	0.74	enough cells in well	253	266	inactive
28	Iscu		fewer than 50 cells per well; well left out of calls	39.7	73.7	inactive
29	Thap1	1.51	enough cells in well	175	93.1	inactive
30	Cep95		fewer than 50 cells per well; well left out of calls	180	67.7	inactive
31	Rps3a1		fewer than 50 cells per well; well left out of calls	51	78.4	inactive
32	Gskip	0.56	enough cells in well	206	163	inactive
33	B330016D10Rik	0.04	enough cells in well	191	231	inactive
34	Btn2a2	3.13	enough cells in well	188	343	active
35	Naalad2	-0.66	enough cells in well	204	67.1	inactive
36	Mylip	-1.82	enough cells in well	89.3	36.7	active
37	Asnsd1		fewer than 50 cells per well; well left out of calls	166	58.2	inactive
38	Impg1	0.55	enough cells in well	244	207	inactive
39	Cyb5b	0.31	enough cells in well	186	62.1	inactive
40	Gng13	-0.96	enough cells in well	120	142	inactive
